Source: publication doi:10.1101/2025.08.19.670962, “Structural basis for binding of RILPL1 to TMEM55B reveals a lysosomal platform for adaptor assembly through a conserved TBM motif” (bioRxiv, 2025)
These are yes or no findings as the source states them, for the method shown. Binding seen in cells or lysates may run through a third protein. Here binding means that the protein was enriched with, or labelled near, the bait; the list need not be complete. For some of these results: No binding means not detected with the bait.

Sequences of proteins named here, by UniProt entry; tags and fusion partners are left off. A change or cut given only in a name is not applied to a line headed by its entry. A line that says so, or that is headed by a name, gives the form on record, which may keep a tag or linker.
Halo-TMEM55B R151E (Q86T03, form named): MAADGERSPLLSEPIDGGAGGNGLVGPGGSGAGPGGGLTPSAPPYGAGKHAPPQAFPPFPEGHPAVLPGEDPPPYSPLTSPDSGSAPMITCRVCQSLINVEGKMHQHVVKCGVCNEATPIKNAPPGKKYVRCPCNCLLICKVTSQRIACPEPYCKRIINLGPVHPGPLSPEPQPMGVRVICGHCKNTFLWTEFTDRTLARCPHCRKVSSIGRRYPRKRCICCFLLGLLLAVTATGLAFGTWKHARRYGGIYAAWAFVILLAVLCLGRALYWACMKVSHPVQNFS
Halo-TMEM55B (Q86T03, form named): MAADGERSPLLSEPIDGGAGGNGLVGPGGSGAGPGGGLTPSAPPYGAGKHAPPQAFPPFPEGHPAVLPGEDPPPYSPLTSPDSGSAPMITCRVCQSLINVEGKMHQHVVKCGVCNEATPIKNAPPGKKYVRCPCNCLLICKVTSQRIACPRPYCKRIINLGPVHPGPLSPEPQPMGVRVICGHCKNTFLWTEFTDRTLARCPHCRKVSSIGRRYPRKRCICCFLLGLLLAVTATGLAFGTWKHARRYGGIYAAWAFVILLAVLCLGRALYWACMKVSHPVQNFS
UniProt Q9H3P7: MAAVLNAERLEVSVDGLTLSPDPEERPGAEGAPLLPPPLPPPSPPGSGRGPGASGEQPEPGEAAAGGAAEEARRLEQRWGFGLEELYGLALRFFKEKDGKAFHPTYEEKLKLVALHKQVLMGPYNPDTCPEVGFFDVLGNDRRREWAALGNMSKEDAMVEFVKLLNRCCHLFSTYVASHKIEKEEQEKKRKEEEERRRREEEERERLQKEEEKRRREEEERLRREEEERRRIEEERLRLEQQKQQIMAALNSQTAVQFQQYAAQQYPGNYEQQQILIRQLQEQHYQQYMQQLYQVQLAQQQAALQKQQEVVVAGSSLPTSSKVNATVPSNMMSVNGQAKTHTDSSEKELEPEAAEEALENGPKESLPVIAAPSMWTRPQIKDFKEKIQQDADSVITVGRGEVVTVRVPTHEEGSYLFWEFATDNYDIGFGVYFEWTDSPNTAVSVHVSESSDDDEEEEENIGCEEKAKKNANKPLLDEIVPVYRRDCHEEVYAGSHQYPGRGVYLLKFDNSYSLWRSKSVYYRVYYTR
UniProt Q01968: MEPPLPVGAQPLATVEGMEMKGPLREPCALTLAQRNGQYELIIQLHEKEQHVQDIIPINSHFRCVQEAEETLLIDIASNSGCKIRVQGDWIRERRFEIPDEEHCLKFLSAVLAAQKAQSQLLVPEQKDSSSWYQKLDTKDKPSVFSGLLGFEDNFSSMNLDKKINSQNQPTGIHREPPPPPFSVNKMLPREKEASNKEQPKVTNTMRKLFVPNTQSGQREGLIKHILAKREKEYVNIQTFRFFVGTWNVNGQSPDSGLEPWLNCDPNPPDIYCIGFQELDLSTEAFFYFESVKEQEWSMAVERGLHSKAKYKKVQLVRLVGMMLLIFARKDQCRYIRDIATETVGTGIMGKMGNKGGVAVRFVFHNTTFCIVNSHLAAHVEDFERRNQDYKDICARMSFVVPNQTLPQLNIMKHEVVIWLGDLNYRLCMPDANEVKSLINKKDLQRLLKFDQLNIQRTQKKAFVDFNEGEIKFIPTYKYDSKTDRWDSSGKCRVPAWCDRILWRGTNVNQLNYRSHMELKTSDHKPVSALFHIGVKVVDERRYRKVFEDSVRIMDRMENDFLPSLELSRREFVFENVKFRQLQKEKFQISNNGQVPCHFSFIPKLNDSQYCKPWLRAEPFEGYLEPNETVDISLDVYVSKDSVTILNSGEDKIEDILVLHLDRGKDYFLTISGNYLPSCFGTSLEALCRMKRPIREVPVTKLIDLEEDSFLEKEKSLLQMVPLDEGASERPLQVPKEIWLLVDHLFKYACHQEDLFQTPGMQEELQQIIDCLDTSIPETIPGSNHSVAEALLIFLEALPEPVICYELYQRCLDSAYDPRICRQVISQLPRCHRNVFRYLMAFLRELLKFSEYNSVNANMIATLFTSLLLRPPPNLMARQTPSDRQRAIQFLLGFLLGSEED
UniProt Q9P2E3: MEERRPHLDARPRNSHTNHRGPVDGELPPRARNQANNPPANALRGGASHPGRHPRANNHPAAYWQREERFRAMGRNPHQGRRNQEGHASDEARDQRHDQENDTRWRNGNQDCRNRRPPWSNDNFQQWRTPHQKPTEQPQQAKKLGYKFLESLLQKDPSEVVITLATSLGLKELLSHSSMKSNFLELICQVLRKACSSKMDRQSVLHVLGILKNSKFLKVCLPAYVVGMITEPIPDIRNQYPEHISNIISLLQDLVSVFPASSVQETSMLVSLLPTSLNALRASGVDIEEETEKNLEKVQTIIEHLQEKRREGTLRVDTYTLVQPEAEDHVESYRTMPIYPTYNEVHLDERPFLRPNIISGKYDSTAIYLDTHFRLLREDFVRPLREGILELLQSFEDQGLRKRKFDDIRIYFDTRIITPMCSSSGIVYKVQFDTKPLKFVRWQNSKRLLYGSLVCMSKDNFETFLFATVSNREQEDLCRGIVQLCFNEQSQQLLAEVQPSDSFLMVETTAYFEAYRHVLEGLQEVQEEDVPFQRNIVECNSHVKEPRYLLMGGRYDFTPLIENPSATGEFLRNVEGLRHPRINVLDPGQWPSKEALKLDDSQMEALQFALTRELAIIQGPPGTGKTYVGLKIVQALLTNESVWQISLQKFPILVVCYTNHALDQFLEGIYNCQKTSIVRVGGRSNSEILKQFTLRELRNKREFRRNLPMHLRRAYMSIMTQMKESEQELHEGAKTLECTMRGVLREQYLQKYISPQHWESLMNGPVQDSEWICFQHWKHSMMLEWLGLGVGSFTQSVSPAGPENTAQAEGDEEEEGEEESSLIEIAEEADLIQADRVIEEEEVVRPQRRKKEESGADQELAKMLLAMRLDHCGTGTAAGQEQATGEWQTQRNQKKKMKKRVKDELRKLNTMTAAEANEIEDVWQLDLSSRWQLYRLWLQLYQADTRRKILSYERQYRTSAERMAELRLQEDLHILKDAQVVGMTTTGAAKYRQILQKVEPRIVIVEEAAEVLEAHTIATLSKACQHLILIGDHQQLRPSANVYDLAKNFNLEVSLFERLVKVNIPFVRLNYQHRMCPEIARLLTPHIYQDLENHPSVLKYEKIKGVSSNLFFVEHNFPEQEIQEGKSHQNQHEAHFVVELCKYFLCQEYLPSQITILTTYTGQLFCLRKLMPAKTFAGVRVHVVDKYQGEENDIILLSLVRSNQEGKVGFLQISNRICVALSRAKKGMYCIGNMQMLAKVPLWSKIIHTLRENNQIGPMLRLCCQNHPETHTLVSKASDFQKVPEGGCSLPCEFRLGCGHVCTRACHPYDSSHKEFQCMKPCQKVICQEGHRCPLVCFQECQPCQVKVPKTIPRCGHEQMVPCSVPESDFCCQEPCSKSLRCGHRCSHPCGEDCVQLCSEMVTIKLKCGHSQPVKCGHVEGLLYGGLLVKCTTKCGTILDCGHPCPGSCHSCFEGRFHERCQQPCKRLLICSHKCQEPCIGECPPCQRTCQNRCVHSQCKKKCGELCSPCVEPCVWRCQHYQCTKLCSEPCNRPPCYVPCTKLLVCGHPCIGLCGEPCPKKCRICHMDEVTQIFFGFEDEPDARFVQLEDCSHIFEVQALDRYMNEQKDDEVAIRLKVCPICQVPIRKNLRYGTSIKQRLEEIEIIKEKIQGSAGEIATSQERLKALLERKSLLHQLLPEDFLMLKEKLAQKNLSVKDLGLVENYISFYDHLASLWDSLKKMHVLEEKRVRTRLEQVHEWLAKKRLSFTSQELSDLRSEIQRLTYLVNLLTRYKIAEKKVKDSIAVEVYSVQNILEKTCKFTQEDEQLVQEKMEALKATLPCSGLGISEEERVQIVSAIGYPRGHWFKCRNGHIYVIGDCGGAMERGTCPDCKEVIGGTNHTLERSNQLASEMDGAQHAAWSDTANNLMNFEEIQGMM

Experiments:
[1] = target: Halo-TMEM55B R151E (UniProt Q86T03); experiment: affinity purification with mass spectrometry; Halo-TMEM55B WT or R151E on HaloLink resin from transfected cells with Rab8A Q67L and LRRK2 Y1699C (or Y1699C D2017A); DIA-MS
[2] = target: Halo-TMEM55B (UniProt Q86T03); experiment: as above

ACBD3 (from UniProt Q9H3P7 1-528)
binding [1]: no binding
binding [2]: binds

OCRL (in HEK293 lysate) (from UniProt Q01968 1-901)
binding [2]: binds

RNF213 (from UniProt Q63HN8 1-5207)
binding [1]: no binding
binding [2]: binds

ZNFX1 (from UniProt Q9P2E3 1-1918)
binding [1]: no binding
binding [2]: binds
